Source: PubChem BioAssay AID445 (National Center for Advancing Translational Sciences (NCATS), 2006)
Some of the results follow. Shown are side measurements of this screen, not its main read-out; they come without a call. Most of these compounds were active or inconclusive in the main read-out, so they are no random draw. Potencies come from curve fits of mixed quality, noted in brackets.

Assay: IkB Signaling
Conditions: ABC-DLBCL IkBa-CBG/CBR dual luciferase ratio (green luciferase fused to IkBa over red control in OCI-Ly3 lymphoma cells), 4 h; measured here: control luc red channel unless noted
Method in brief: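 In this assay, an IκBα–CBG68 fusion accumulates when IKK-driven degradation is blocked; native CBR normalizes for cell number. OCI-Ly3 cells were treated 4 h with compound and doxycycline, then green and red light read after Chroma-Glo addition.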

**Q.** Which AC50 does the source give for `CC1(C)CC(=O)C(C=Nc2ccc3[nH]ncc3c2)=C(O)C1` here?
**A.** 2.51 µM [falling, full curve, poor fit]

**Q.** Which AC50 does the source give for `COc1ccc(-c2onc(C)c2C)cc1S(=O)(=O)NCc1ccc(C)o1` here?
**A.** 0.316 µM [rising, full curve, poor fit]

**Q.** Which AC50 does the source give for `COc1ccc(CCCc2nnc(SCC(=O)Nc3cccc(C)c3)o2)cc1` here?
**A.** 25.1 µM [falling, partial curve]

**Q.** For `Cc1ccc2[nH]cc(C(c3ccccc3)c3ccc(C)s3)c2c1` (stereo not given), which AC50 is on record?
**A.** 39.8 µM [falling, single point]

**Q.** With `CCOC(=O)c1ccc(-c2ccc(/C=C(\C#N)c3nc4ccc(C)cc4[nH]3)o2)cc1` as the compound, how does the AC50 read?
**A.** 7.94 µM [falling, full curve]

**Q.** Which AC50 does the source give for `COCC(C)NC(=O)c1cc2c(=O)n3cccc(C)c3nc2s1` (stereo not given) here?
**A.** 3.98 µM [rising, partial curve]

**Q.** Which AC50 does the source give for `CCN(c1ccc(Cl)cc1)S(=O)(=O)c1nnc(NC(=O)c2ccccc2C)s1` here?
**A.** 20 µM [falling, partial curve]

**Q.** Which AC50 does the source give for `CC(CNC(=O)C1CCN(C(=O)N2CCOc3ccc(Cl)cc32)CC1)c1ccccc1` (stereo not given) here?
**A.** 12.6 µM [falling, partial curve]

**Q.** With `CC1Cn2c(C(=O)NCc3cccc(Br)c3)cc3cccc(c32)S1` (stereo not given) as the compound, how does the AC50 read?
**A.** 31.6 µM [falling, single point]

**Q.** With `CC(C)(C)C1CCc2nc(NC(=O)c3ccc([N+](=O)[O-])cc3)sc2C1` (stereo not given) as the compound, how does the AC50 read?
**A.** 7.94 µM [falling, partial curve]

**Q.** Which AC50 does the source give for `Cc1ccc(C(=O)O)cc1NC1(c2ccccc2)C(=O)c2ccccc2C1=O` here?
**A.** 1.58 µM [rising, partial curve]

**Q.** Which AC50 does the source give for `Cc1cccc(-c2nc3c(cnn3-c3ccccc3)c(=O)n2-c2ccc(Br)cc2)c1` here?
**A.** 0.501 µM [rising, full curve]

**Q.** For `COc1ccc2oc(-c3ccc(C)c(NC(=O)c4ccc(-c5ccccc5[N+](=O)[O-])o4)c3)nc2c1`, which AC50 is on record?
**A.** 10 µM [falling, partial curve]

**Q.** For `CCCCCCCCCCCCCCCCCC(=O)NC[C@@H](COP(=O)([O-])OCC[N+](C)(C)C)OCC`, which AC50 is on record?
**A.** 25.1 µM [falling, partial curve, poor fit] [measured here: IkB-luc green channel]

**Q.** For `COc1ccccc1CNC(=O)C1CCCN(c2nnc(C)c3c(C)n(-c4ccccc4)nc23)C1` (stereo not given), which AC50 is on record?
**A.** 2.51 µM [falling, partial curve]

**Q.** For `COc1ccc(-c2nnc(SCC(=O)OC3CCCCC3)o2)cc1OC`, which AC50 is on record?
**A.** 31.6 µM [falling, single point]

**Q.** For `O=C(CCSCc1cccc(Cl)c1)NCc1ccc(F)cc1Cl`, which AC50 is on record?
**A.** 31.6 µM [falling, single point]

**Q.** For `COc1cccc(N(C(=O)c2ccco2)C(C(=O)NC2CCCC2)c2ccc(N(C)C)cc2)c1` (stereo not given), which AC50 is on record?
**A.** 25.1 µM [falling, partial curve]

**Q.** For `Cc1[nH]c2ccccc2c(=O)c1CN(C)Cc1ccccc1`, which AC50 is on record?
**A.** 3.98 µM [falling, partial curve]

**Q.** For `Cc1ccc2[nH]c(CSc3nnc(NC(=O)c4ccccc4F)s3)cc(=O)c2c1`, which AC50 is on record?
**A.** 0.126 µM [rising, full curve, poor fit]

**Q.** For `CCc1ccccc1NC(=O)c1sc2nc(C)cc(COC)c2c1N`, which AC50 is on record?
**A.** 0.794 µM [rising, partial curve]

**Q.** With `Cc1cccc(N(Cc2cc3ccccc3[nH]c2=O)C(=O)c2cccc(Cl)c2)c1` as the compound, how does the AC50 read?
**A.** 10 µM [falling, partial curve]

**Q.** With `Cc1cccc(CCNC(=O)c2ccc(CSCc3cccc(Cl)c3)o2)c1` as the compound, how does the AC50 read?
**A.** 39.8 µM [falling, single point]

**Q.** For `O=C(C(Cc1ccccc1)n1cccc1)N1CCc2ccccc21` (stereo not given), which AC50 is on record?
**A.** 20 µM [falling, partial curve]

**Q.** With `COc1cccc(C(=O)N2CCN(C3CCC(c4ccccc4)CC3)CC2)c1` (stereo not given) as the compound, how does the AC50 read?
**A.** 20 µM [falling, single point]

**Q.** Which AC50 does the source give for `O=C(CCC1CCCC1)Nc1ccc(Br)cn1` here?
**A.** 0.0794 µM [rising, full curve, poor fit]

**Q.** With `CCOc1ccccc1N1CC(c2nc3ccccc3n2CCOc2ccccc2OC)CC1=O` (stereo not given) as the compound, how does the AC50 read?
**A.** 20 µM [falling, single point]

**Q.** For `Cn1nc(-c2ccc(C(=O)Nc3ccc(OC(F)(F)F)cc3)cc2)c2ccccc2c1=O`, which AC50 is on record?
**A.** 0.00631 µM [falling, full curve, poor fit]

**Q.** With `O=c1cc(CN2CCN(C/C=C/c3ccccc3)CC2)c2cc(O)ccc2o1` as the compound, how does the AC50 read?
**A.** 15.8 µM [falling, partial curve]

**Q.** Which AC50 does the source give for `O=C(NCc1ccccc1Cl)C(=O)NCC(c1cccs1)S(=O)(=O)c1ccccc1` (stereo not given) here?
**A.** 5.01 µM [rising, partial curve]

**Q.** With `N#C/C(=C\c1ccc(-c2ccc(Cl)c(C(=O)O)c2)o1)c1nc2ccccc2[nH]1` as the compound, how does the AC50 read?
**A.** 25.1 µM [falling, partial curve]

**Q.** With `Cc1ccc(-n2c(SCc3ccccc3C)nc3[nH]ncc3c2=O)cc1C` as the compound, how does the AC50 read?
**A.** 20 µM [falling, partial curve]

**Q.** With `Cc1cccn2c(=O)c3cc(C(=O)NC(C)c4ccccc4)c(=N)n(CCOCCO)c3nc12` (stereo not given) as the compound, how does the AC50 read?
**A.** 31.6 µM [falling, partial curve]

**Q.** For `COc1ccc(Cl)cc1NC(=O)c1c(NCc2cccs2)sc2c1CCCC2`, which AC50 is on record?
**A.** 39.8 µM [falling, single point]

**Q.** With `Cc1cccc(-n2ncc(C(=O)Nc3ccc4c(c3)OCO4)c2C2CCN(C(=O)OC(C)(C)C)CC2)c1` as the compound, how does the AC50 read?
**A.** 15.8 µM [falling, partial curve]

**Q.** Which AC50 does the source give for `CN(C)c1ccc(NC(=O)CSC2=Nc3ccccc3C3=NC(CC(=O)NCc4ccc5c(c4)OCO5)C(=O)N23)cc1` (stereo not given) here?
**A.** 15.8 µM [falling, single point]

**Q.** For `Oc1ccc(NCc2ccccc2OCc2ccccc2Cl)cc1`, which AC50 is on record?
**A.** 15.8 µM [falling, partial curve]

**Q.** Which AC50 does the source give for `Cc1ccc(NC(=O)Cn2cnc3c(oc4ccccc43)c2=O)cc1` here?
**A.** 15.8 µM [falling, partial curve]

**Q.** With `Cc1ccc(COc2cccc3cc(-c4noc(-c5ccc(C)cc5)n4)c(=O)oc23)cc1` as the compound, how does the AC50 read?
**A.** 0.794 µM [falling, partial curve]

**Q.** For `CC(C)C(=O)c1cc2c(cc1NC(=O)c1ccccc1F)OCCO2`, which AC50 is on record?
**A.** 15.8 µM [falling, partial curve]
